# Patent US7745587
# Molecular target: human MMP-14 (human)
# Assay: phage display selection and phage ELISA screening on biotinylated MMP-14
row,binding,Binder
1,binds,"M0036-F02 Fab (Fab, V domains shown) VH: EVQLLESGGGLVQPGGSLRLSCAASGFTFSRYTMGWVRQAPGKGLEWVSRIYSSGGNTVYADSVKGRFTISRDNSKNTLYLQMNSLRAEDTATYYCARTRRDGYNPFDYWGQGTLVTVSS VL: QYELTQPPSLSVSPGQTASITCSGEKLGEKFASWYQRRPGQSPLLIIYQDNKRPSGIPERFSGSNSGNTAALTITGTQAMDDADYYCQAWESTTAVFGGGTKLTVL"
2,binds,"M0041-B03 Fab (Fab, V domains shown) VH: EVQLLESGGGLVQPGGSLRLSCAASGFTFSMYMMWWVRQAPGKGLEWVSVISSSGGFTSYADSVKGRFTISRDNSKNTLYLQMNSLRAEDTAVYYCARLRYSNFVGGLDVWGQGTTVTVSS VL: DIQMTQSPATLSASVGDRVTISCRASQNISNWLAWYQQKPGKAPKLLIYTASTLHRGVPSRFSGSGSGTDFTLTITSLQPEDFATYYCQQANTFPWTFGQGTKVEIK"
3,binds,"M0041-A05 Fab (Fab, V domains shown) VH: EVQLLESGGGLVQPGGSLRLSCAASGFTFSVYTMHWVRQAPGKGLEWVSVIYPSGGLTIYADSVKGRFTISRDNSKNTLYLQMNSLRAEDTAVYYCARNRGYYAPMDVWGQGTTVTVSS VL: DIQMTQSPSSLSASVGDRVTITCRASQNINSYLNWYQQKPGKAPKLLIYAASSLQSGVPSRFSGSGSGTDFTLTISSLQPEDFVTYYCQQSYSTPKTFGQGTKVEIK"
4,binds,"M0038-B06 Fab (Fab, V domains shown) VH: EVQLLESGGGLVQPGGSLRLSCAASGFTFSSYVMGWVRQAPGKGLEWVSVISPSGGWTTYADSVKGRFTISRDNSKNTLYLQMNSLRAEDTATYYCASRGVVTNLDYWGQGTLVTVSS VL: DIQMTQSPSSLSASVGDRVTITCRASQSISSYLNWYQQKPGKAPKLLIYAASSLQSGVPSRFRGSGSGTDFSLTISSLQPEDFATYYCQQTYSGLPTFGGGTVVEIK"
5,binds,"M0039-G07 Fab (Fab, V domains shown) VH: EVQLLESGGGLVQPGGSLRLSCAASGFTFSRYVMDWVRQAPGKGLEWVSRISPSGGHTDYADSVKGRFTISRDNSKNTLYLQMNSLRAEDTAVYYCARETVRGVYFDYWGQGTLVTVSS VL: DIQMTQSPGTLSLSPGERATLSCRASQSVNSRFLAWYQQKPGQAPRLLIYSTSTRATGIPDRFSGSGSGTDFTLTISRLEPEDFAVYYCQRYGSSPTWTFGQGTKVEIK"
6,binds,"M0037-B10 Fab (Fab, V domains shown) VH: EVQLLESGGGLVQPGGSLRLSCAASGFTFSVYYMGWVRQAPGKGLEWVSYIGSSGGWTEYADSVKGRFTISRDNSKNTLYLQMNSLRAEDTAVYYCARDLSAVAGLGGAFDIWGQGTMVTVSS VL: DIQMTQSPSSLSASVGDRVAITCRASQSIDTYLNWYQQKPGKAPKLLIYAASKLEDGVPSRFSGSGTGTDFTLTIRSLQPEDFASYFCQQSYSSPGITFGPGTKVEIK"
7,binds,"M0040-C10 Fab (Fab, V domains shown) VH: EVQLLESGGGLVQPGGSLRLSCAASGFTFSRYMMVWVRQAPGKGLEWVSSIVSSGGKTWYADSVKGRFTISRDNSKNTLYLQMNSLRAEDTAMYYCARWDWGPFDYWGQGTLVTVSS VL: DIQMTQSPATLSASVGDRVTITCRASQTISTYLNWYQHKPGKAPELLIYAASSLQSGVPSRFSGSGSGTDFTLRISSLQPEDFATYYCQQSYTTPWTFGQGTKVEIK"
8,binds,"M0040-H09 Fab (Fab, V domains shown) VH: EVQLLESGGGLVQPGGSLRLSCAASGFTFSLYPMQWVRQAPGKGLEWVSYIRSSGGKTHYADSVKGRFTISRDNSKNTLYLQMNSLRAEDTAVYYCARVGMGSGWYTGYFDLWGRGTLVTVSS VL: QSELTQDPAVSVALGQAVIITCQGDSLRTYYPSWYQQKPGQAPTLLVYGKNKRPSGVPDRFSGSRSGDTASLIITGAQAEDDADYYCNSRDGSGHLFVFGPGTTVTVL"
9,binds,"M0041-B11 Fab (Fab, V domains shown) VH: EVQLLESGGGLVQPGGSLRLSCAASGFTFSQYSMHWVRQAPGKGLEWVSSIVPSGGMTAYADSVKGRFTISRDNSKNTLYLQMNSLRAEDTAVYYCAKISRGNDAFDIWGQGTMVTVSS VL: QSVLTQDPAVSVALGQTVRITCQGDSLRSYSASWYQRKPGQAPLLVIYRKTNRPSGIPDRFSGSSSGNTASLTITGAQAEDESDYYCNSRDSSGNHLFGGGTKLTVL"
10,binds,"M0037-H09 Fab (Fab, V domains shown) VH: EVQLLESGGGLVQPGGSLRLSCAASGFTFSRYWMDWVRQAPGKGLEWVSSIRSSGGMTGYADSVKGRFTISRDNSKNTLYLQMNSLRAEDTAVYYCARHRTGRGAFDIWGQGTTVTVSS VL: DIQMTQSPLSLPVTPGEPASISCRSSQSLLHGNGNNYLDWYLQKPGQSPQLLIYLGSNRASGVPDRFSGSGSGTDFTLKISSVEAEDVGVYYCMQGLQTPHTFGQGTQLEIK"
11,binds,"M0038-C05 Fab (Fab, V domains shown) VH: EVQLLESGGGLVQPGGSLRLSCAASGFTFSSYIMVWVRQAPGKGLEWVSVIYPSGGPTYYADSVKGRFTISRDNSKNTLYLQMNSLRAEDTAVYYCARDPRLERFYFDYWGQGTLVTVSS VL: DIQMTQSPSSLSASVGDRVTITCRASQSISSYLNWYQQKPGKAPKLLIYAASSLQSGVPSRFSGSGSGTDFTLTISRLEPEDFAVYYCQQYGSSPTFGQGTKVEIK"
12,binds,"M0041-D03 Fab (Fab, V domains shown) VH: EVQLLESGGGLVQPGGSLRLSCAASGFTFSFYNMTWVRQAPGKGLEWVSSIYSSGGNTDYADSVKGRFTISRDNSKNTLYLQMNSLRAEDTAVYYCARDSLSHYYYGMDVWGQGTTVTVSS VL: DIQMTQSPSSLSASVGDRITVTCRASQSITNYLNWYQQKPGKAPKLLIYAASTLQSGVPSRFSGSGSGTDFTLTISRLEPEDFAVYYCQQYGSSPTFGQGTKVEVK"
13,binds,"M0037-C03 Fab (Fab, V domains shown) VH: EVQLLESGGGLVQPGGSLRLSCAASGFTFSMYLMIWVRQAPGKGLEWVSVISSSGGQTKYADSVKGRFTISRDNSKNTLYLQMNSLRAEDTAVYYCARTDLTGYSAGAFDIWGQGTMVTVSS VL: DIQMTQSPSSVSASVGDRVTITCRASQGISSWLAWYQQKPGKAPKLLIYAASSLQSGVPSRFSGSGSGTDFTLTISSLQPEDFATYYCQQANSFPFVTFGQGTKLEIK"
14,binds,"M0040-H04 Fab (Fab, V domains shown) VH: EVQLLESGGGLVQPGGSLRLSCAASGFTFSSYDMVWVRQAPGKGLEWVSSISPSGGNTQYADSVKGRFTISRDNSKNTLYLQMNSLRAEDTAVYYCAKVAAMAPWYFDYWGQGTLVTVSS VL: DIQMTQSPDSLAVSLGERATLNCRSSQSVLYSPNNKNYLAWYQQKAGQPPKLLIYWASFRESGVPERFSGSGSGTDFTLTISSLQAEDVAVYYCQQYHTPPWTFGQGTKVEIK"
15,binds,"M0040-D08 Fab (Fab, V domains shown) VH: EVQLLESGGGLVQPGGSLRLSCAASGFTFSHYGMTWVRQAPGKGLEWVSSIVPSGGYTAYADSVKGRFTISRDNSKNTLYLQMNSLRAEDTAVYYCTTGLSSSGTRWFDAWGQGTLVTVSS VL: QSALTQSPSASASLGSSVKLTCTLASEHSGYIIAWHQQQPGKAPRFLMKLDGTGNFNKGSGVPDRFSGYSSGADRYLTISNLQSEDEADYYCETWDSTTLWVFGGGTKLTVL"
16,binds,"M0040-B06 Fab (Fab, V domains shown) VH: EVQLLESGGGLVQPGGSLRLSCAASGFTFSVYPMVWVRQAPGKGLEWVSYISPSGGFTFYADSVKGRFTISRDNSKNTLYLQMNSLRAEDTAVYYCARVPGGSRQDFDIWGQGTMVTVSS VL: QYELTQPPSASGTPGQRVTISCSGSSSNIGRNYVYWYQQVPGTAPKLLIYSNNQRPSGVPDRFSGSKSGTSASLVISGLRSEDEADYYCAAWDASLRGVFGGGTKLTVL"
17,binds,"M0038-E05 Fab (Fab, V domains shown) VH: EVQLLESGGGLVQPGGSLRLSCAASGFTFSPYHMTWVRQAPGKGLEWVSSISSSGGHTEYADSVKGRFTISRDNSKNTLYLQMNSLRAEDTAVYYCATAWAGFTFNVWGQGTMVTVSS VL: DIQMTQSPSSVSASVGDRVTITCRASQHISNWLAWYQQKPGEAPKLLISAASSLQSGVPSRFSGSGSGTDFTLTISSLQPEDFATYYCQQSYSTPLTFGGGTKVEIK"
18,binds,"M0040-A03 Fab (Fab, V domains shown) VH: EVQLLESGGGLVQPGGSLRLSCAASGFTFSNYMMIWVRQAPGKGLEWVSWISPSGGYTFYADSVKGRFTISRDNSKNTLYLQMNSLRAEDTAVYYCARGYYDILTGMVGGGAFDIWGQGTTVTVSS VL: DIQMTQSPSFVSASVGDRVTISCRASHNINTWLAWYQQKPGKAPNLLIYSASNLQGGVPSRFSGSGSGTDFTLTISSLQPGDFATYYCQQASSFPITFGQGTRLEIK"
19,binds,"M0030-A04 Fab (Fab, V domains shown) VH: EVQLLESGGGLVQPGGSLRLSCAASGFTFSVYEMNWVRQAPGKGLEWVSSIYSSGGRTDYADSVKGRFTISRDNSKNTLYLQMNSLRAEDTAVYYCAREAHYYDSSGPPDYWGQGTLVTVSS VL: QSELTQPPSASGTPGQRVTISCSGSSSNIGINFVTWYQQLPGTAPKLLIYTNNQRPSGVPDRFSSSKSGASASLAISGLQSEDEAAYYCAAWDDNLNGPVFGGGTKLTVL"
20,binds,"M0039-D10 Fab (Fab, V domains shown) VH: EVQLLESGGGLVQPGGSLRLSCAASGFTFSMYNMAWVRQAPGKGLEWVSWIYSSGGLTLYADSVKGRFTISRDNSKNTLYLQMNSLRAEDTAVYYCAKGSNTYYFDASGLGAFNMWGQGTMVTVSS VL: DIQMTQSPDTVSFSPGERASLSCRASQSVRSDLAWYQQKPGQAPRLLIYGASNRATGIPVRFSGSGSGTDFTLTISRLEPEDFAVYYCQQYGSSPLFTFGPGTKVDIK"
21,binds,"M0035-F02 Fab (Fab, V domains shown) VH: EVQLLESGGGLVQPGGSLRLSCAASGFTFSFYRMEWVRQAPGKGLEWVSSIVPSGGFTRYADSVKGRFTISRDNSKNTLYLQMNSLRAEDTAVYYCARFHVLRYFDWFGNTQDTDAFDIWGQGTLVTVSS VL: DIQMTQSPATLSLSPGERATLSCRASQSVSNYLAWYQQKPGQAPRLLIYDASNRATGIPARFSGSGSGTDFTLTISSLEPEDFAVYYCQQRSNWPLTFGGGTKVEIK"
22,binds,"M0038-D06 Fab (Fab, V domains shown) VH: EVQLLESGGGLVQPGGSLRLSCAASGFTFSWYYMGWVRQAPGKGLEWVSYIGSSGGMTGYADSVKGRFTISRDNSKNTLYLQMNSLRAEDTATYYCAMVGFLPTVDYWGQGTLVTVSS VL: DIQMTQSPATLSLSPGERATLSCRASQSVSSYLAWYQQKPGQAPRLLIYDASNRATGIPARFSGSGSGTDFTLTISSLEPEDFAVYYCQQRSNWPLTFGQGTRLEIK"

# No constants are given. Whether binding was seen depends on the method and setting. Binding calls can cover weak binding; strength is not graded here.
